Test results taken from US20160031955A1 (INSERM INSTITUT NATIONAL DE LA SANT ET DE LA RECHERCHE M …, published 2016).
No constants are given. Whether binding was seen depends on the method and setting. In cells and extracts the contact can be indirect. Some binding calls cover weakened binding; strength is not graded here. For part of these data: Sequences can lack the tags named with a protein.

Sequences of proteins named here, by UniProt entry; tags and fusion partners are left off. Residues count along the entry.
UniProt O95831, residues 55-613: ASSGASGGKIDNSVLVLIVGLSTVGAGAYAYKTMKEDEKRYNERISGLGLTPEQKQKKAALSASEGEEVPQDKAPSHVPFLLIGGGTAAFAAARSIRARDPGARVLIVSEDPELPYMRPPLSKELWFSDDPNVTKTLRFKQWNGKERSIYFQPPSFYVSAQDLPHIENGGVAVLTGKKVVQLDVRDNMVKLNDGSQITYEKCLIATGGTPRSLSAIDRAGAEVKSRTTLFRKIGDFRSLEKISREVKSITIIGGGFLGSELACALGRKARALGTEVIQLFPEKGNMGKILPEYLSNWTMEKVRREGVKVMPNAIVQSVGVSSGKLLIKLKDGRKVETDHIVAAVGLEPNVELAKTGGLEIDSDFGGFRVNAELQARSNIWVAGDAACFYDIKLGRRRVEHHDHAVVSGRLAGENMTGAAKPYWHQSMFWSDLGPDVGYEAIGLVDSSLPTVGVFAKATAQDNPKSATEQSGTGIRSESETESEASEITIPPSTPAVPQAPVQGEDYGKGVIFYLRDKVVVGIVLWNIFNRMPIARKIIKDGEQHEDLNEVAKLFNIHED

Legend:
[1] = biological target: endogenous AIF (apoptosis inducing factor) contained in human cell lysates (human) (UniProt O95831); test: co-immunoprecipitation from human cancer cell lysates
[2] = biological target: GST-tagged AIF (GST-AIF) immobilized on glutathione-Sepharose beads (human) [GST: P08515]; test: GST pull-down of MIA40 from U2OS lysate on GST-tagged AIF
[3] = biological target: GST-tagged AIF (GST-AIF) immobilized on glutathione-Sepharose beads (human) [GST: P08515]; test: GST pull-down, GST-AIF on beads preincubated with pyridine nucleotides
[4] = biological target: endogenous AIF (apoptosis inducing factor) contained in human cell lysates (human) (UniProt O95831); test: GST pull-down of AIF from U2OS lysate

binding [1]	binding [4]	Binder	also measured
binds		endogenous human MIA40 isoform 1 (CHCHD4.1) (protein) MSYCRQEGKDRIIFVTKEDHETPSSAELVADDPNDPYEEHGLILPNGNINWNCPCLGGMASGPCGEQFKSAFSCFHYSTEEIKGSDCVDQFRAMQECMQKYPDLYPQEDEDEEEEREKKPAEQAEETAPIEATATKEEEGSS	binding [2]: binds
binds		recombinant HA-tagged MIA40 isoform 1 (wt) (protein, not shown: small tags and cut ends) MSYCRQEGKDRIIFVTKEDHETPSSAELVADDPNDPYEEHGLILPNGNINWNCPCLGGMASGPCGEQFKSAFSCFHYSTEEIKGSDCVDQFRAMQECMQKYPDLYPQEDEDEEEEREKKPAEQAEETAPIEATATKEEEGSS	
		recombinant His-tagged full length MIA40 (protein, not shown: small tags and cut ends) MSYCRQEGKDRIIFVTKEDHETPSSAELVADDPNDPYEEHGLILPNGNINWNCPCLGGMASGPCGEQFKSAFSCFHYSTEEIKGSDCVDQFRAMQECMQKYPDLYPQEDEDEEEEREKKPAEQAEETAPIEATATKEEEGSS	binding [3]: binds
	binds	GST-tagged full length MIA40 (wt) (protein, not shown: a dimerising Fc or GST) MSYCRQEGKDRIIFVTKEDHETPSSAELVADDPNDPYEEHGLILPNGNINWNCPCLGGMASGPCGEQFKSAFSCFHYSTEEIKGSDCVDQFRAMQECMQKYPDLYPQEDEDEEEEREKKPAEQAEETAPIEATATKEEEGSS	
	binds	GST-tagged truncation mutant of MIA40 (1-57) (protein, not shown: a dimerising Fc or GST; small tags and cut ends) MSYCRQEGKDRIIFVTKEDHETPSSAELVADDPNDPYEEHGLILPNGNINWNCPCLG	
